Measured values as given in the supplement of paper PMC12823440, “Inhibitors supercharge kinase turnover through native proteolytic circuits” (Nature, 2025).
The list shows a part of the results. The calls rarely recur for the same compound in another form.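 Kinases, fused to nanoluciferase, were expressed in K562 cells; luminescence was measured every 4 h from 2 to 18 h as percent of control (DMSO = 100%, positive control = 0%). A time point is decreased if signal falls significantly (2 sigma). Hits were called by the authors by a rule that is not shown; the count of time points alone does not decide it.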

The chains behind the UniProt entries cited, without tags or fusion partners. Where a name states a change or a piece, a line headed by the entry shows the natural chain unless it says otherwise.
UniProt Q01974, whole entry: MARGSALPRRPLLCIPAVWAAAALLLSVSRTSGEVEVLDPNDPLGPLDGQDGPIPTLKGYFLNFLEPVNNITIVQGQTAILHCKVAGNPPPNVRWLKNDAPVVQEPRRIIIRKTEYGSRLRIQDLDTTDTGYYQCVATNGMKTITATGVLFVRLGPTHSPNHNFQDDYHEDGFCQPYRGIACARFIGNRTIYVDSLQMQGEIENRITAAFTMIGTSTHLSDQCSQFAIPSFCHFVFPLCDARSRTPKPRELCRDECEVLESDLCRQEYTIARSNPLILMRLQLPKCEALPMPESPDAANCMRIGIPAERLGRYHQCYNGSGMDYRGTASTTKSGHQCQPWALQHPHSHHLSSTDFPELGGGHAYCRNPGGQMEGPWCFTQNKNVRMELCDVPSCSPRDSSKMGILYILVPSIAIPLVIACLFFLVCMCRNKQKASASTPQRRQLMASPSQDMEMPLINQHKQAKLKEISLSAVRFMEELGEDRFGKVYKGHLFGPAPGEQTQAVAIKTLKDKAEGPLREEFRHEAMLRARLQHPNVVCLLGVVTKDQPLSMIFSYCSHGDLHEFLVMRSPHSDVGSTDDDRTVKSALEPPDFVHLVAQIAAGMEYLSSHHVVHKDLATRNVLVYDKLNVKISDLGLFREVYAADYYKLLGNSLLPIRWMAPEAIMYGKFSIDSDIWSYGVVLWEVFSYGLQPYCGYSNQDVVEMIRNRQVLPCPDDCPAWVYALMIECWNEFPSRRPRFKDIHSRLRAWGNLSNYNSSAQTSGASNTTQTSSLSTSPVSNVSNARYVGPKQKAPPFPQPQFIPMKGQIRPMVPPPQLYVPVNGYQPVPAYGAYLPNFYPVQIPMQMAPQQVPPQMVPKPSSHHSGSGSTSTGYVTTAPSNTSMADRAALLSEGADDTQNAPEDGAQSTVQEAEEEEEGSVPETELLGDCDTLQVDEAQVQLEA
UniProt Q15418, whole entry: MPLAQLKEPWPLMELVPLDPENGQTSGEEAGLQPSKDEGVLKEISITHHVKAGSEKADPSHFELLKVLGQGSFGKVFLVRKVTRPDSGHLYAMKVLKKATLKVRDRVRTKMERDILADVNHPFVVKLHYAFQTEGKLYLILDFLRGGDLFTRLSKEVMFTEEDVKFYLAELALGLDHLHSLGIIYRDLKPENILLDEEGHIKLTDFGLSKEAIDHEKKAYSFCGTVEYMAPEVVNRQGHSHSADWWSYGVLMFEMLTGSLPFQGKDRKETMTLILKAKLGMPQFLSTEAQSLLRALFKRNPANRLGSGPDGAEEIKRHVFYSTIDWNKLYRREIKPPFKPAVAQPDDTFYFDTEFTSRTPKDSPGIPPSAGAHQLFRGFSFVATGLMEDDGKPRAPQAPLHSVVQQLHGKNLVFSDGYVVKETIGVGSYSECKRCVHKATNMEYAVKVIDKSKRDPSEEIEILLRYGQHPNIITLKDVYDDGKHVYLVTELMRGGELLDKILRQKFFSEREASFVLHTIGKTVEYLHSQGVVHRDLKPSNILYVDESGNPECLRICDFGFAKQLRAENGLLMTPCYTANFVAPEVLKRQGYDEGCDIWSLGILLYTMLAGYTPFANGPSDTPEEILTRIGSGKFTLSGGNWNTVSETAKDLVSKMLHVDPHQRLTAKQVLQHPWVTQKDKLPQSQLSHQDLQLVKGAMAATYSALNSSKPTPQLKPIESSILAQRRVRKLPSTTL
UniProt Q9NYA1, whole entry: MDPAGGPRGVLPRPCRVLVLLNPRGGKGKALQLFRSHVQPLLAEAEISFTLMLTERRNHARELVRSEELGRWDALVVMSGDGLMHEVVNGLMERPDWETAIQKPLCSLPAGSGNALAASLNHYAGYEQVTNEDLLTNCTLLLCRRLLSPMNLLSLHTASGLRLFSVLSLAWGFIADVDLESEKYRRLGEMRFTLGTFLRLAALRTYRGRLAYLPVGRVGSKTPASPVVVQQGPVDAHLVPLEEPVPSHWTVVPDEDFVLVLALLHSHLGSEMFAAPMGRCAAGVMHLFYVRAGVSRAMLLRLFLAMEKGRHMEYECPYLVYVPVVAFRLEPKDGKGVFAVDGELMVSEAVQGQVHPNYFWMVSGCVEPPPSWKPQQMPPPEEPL
UniProt Q9Y6E0: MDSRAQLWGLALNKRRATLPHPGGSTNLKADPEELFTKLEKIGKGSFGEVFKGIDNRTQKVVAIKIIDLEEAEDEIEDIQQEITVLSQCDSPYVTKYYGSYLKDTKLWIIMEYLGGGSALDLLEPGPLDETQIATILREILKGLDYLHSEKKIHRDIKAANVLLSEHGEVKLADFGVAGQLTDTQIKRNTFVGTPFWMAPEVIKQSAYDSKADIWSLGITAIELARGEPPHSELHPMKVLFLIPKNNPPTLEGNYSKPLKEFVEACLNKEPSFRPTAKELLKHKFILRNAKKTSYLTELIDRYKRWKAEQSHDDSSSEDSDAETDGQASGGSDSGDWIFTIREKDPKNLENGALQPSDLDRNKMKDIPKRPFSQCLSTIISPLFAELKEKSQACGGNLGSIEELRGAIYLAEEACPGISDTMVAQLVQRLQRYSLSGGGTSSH
UniProt Q15208: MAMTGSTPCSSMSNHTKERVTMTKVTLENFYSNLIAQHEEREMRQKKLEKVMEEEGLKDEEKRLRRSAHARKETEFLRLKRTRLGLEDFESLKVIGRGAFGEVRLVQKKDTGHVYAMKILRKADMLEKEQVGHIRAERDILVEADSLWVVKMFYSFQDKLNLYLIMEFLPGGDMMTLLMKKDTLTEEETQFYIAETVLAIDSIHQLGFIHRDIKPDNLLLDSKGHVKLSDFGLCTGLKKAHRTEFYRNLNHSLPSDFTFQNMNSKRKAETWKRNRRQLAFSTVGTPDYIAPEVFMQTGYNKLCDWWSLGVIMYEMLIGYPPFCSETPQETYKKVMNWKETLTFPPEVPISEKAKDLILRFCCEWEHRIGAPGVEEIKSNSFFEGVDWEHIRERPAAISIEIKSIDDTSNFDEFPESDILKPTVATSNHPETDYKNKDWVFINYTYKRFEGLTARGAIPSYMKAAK
UniProt P42680: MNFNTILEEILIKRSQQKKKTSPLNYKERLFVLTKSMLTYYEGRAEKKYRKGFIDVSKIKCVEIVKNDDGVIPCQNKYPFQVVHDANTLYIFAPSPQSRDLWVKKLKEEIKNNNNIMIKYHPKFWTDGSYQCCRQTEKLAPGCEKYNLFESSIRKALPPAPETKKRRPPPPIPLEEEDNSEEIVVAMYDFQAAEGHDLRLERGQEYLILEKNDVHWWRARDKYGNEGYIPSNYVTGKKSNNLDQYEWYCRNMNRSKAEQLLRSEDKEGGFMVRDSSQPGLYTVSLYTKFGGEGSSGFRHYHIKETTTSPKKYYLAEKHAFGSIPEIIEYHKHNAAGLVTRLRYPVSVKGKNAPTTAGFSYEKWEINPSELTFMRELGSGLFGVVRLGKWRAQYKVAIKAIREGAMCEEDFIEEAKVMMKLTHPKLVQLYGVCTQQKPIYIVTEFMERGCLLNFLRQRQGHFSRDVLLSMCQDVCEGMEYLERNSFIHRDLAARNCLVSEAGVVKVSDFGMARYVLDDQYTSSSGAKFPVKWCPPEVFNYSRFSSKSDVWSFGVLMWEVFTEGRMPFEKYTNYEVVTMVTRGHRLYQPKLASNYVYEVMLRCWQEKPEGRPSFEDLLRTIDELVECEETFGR
UniProt P29597: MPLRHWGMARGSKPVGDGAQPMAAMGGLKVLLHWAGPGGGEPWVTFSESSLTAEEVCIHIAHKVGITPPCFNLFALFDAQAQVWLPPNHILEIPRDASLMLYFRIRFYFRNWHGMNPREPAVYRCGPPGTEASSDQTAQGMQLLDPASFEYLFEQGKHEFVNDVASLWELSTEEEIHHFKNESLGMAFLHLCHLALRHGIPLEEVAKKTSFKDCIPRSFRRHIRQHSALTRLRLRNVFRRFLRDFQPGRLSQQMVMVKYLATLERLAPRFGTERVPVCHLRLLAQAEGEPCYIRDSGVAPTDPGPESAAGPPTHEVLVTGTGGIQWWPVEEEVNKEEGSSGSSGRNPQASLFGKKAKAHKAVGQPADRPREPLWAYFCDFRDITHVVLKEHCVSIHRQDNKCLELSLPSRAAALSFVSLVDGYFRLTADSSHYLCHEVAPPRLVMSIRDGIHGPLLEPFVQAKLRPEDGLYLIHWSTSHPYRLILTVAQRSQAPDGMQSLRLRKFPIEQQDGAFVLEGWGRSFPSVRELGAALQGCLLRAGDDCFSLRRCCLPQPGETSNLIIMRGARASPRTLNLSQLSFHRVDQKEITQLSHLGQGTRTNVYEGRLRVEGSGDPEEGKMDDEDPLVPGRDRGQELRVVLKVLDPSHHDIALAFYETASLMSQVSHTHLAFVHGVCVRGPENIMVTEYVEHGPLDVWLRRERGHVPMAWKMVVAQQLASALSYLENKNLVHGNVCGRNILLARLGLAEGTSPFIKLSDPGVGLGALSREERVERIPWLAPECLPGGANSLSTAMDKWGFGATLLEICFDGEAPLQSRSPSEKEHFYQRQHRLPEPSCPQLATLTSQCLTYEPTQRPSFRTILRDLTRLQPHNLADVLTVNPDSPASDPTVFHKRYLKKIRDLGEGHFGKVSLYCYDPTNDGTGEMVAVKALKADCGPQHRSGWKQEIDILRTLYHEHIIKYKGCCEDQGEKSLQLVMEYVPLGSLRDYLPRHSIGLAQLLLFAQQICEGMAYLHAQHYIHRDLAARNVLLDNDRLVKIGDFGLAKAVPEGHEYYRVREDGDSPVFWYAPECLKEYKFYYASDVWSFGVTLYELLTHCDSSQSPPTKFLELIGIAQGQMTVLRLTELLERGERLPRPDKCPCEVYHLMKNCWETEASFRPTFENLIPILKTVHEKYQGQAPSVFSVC
UniProt Q6PHR2: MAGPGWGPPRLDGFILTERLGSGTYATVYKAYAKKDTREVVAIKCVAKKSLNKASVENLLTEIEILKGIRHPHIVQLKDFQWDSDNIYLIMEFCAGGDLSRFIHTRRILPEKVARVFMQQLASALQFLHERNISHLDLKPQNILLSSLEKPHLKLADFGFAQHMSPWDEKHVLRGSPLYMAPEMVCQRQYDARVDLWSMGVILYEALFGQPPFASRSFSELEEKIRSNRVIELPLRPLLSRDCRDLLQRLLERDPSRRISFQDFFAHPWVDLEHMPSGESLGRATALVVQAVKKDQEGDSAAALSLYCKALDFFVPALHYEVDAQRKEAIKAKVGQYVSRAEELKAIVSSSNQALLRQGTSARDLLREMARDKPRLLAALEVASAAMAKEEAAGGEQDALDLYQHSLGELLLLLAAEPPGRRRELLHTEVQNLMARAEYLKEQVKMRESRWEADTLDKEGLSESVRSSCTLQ

Assays:
Test in all cases: number of time points (of 5) at which kinase-Nluc abundance scored as decreased, DMSO-normalised (count); higher = more persistent destabilization
Settings in all cases: K562; 2-18 h
[1] = target: ROR2 (UniProt Q01974)
[2] = target: RPS6KA1 (UniProt Q15418)
[3] = target: SPHK1 (UniProt Q9NYA1)
[4] = target: SRC (UniProt P12931)
[5] = target: STK24 (UniProt Q9Y6E0)
[6] = target: STK38 (UniProt Q15208)
[7] = target: SYK (UniProt P43405)
[8] = target: TEC (UniProt P42680)
[9] = target: TYK2 (UniProt P29597)
[10] = target: ULK3 (UniProt Q6PHR2)

Row | Compound | number of time points [1] | number of time points [2] | number of time points [3] | number of time points [4] | number of time points [5] | number of time points [6] | number of time points [7] | number of time points [8] | number of time points [9] | number of time points [10]
1 | COc1ccc(S(=O)(=O)N(CCO)c2ccccc2CN(C)CC=Cc2ccc(Cl)cc2)cc1 (2.5 µM) | 0 | 0 | 0 | 0 | 0 | 0 | 0 | 0 | 0 | 0
2 | CNCCOc1ccccc1C(C)(C)Nc1nccn(-c2cc(C(=O)NC3CC3)ccc2C)c1=O [p38α inhibitor 2] (10 µM) | 0 | 0 | 0 | 0 | 0 | 0 | 0 | 0 | 0 | 0
3 | CC(C)Cn1cc(C#N)c2cc(Oc3ccc(NC(=O)[C@@H]4CCCN4)cc3)ccc21 (10 µM) | 0 | 0 | 0 | 0 | 0 | 0 | 0 | 0 | 0 | 0
4 | CC[C@@H]1CN(C(=O)NCC(F)(F)F)C[C@@H]1c1cnc2cnc3[nH]ccc3n12 [Upadacitinib] (10 µM) | 0 | 0 | 0 | 0 | 0 | 0 | 0 | 0 | 0 | 0
5 | O=C1C(=Cc2ccc(O)c(O)c2)Oc2ccccc21 (2.5 µM) | 0 | 0 | 0 | 0 | 0 | 0 | 0 | 0 | 0 | 0
6 | CN(C)CCCNc1ccn2ncc(-c3ccc4c(c3)OCO4)c2n1 (10 µM) | 0 | 0 | 0 | 0 | 0 | 0 | 0 | 0 | 0 | 0
7 | CC(C)=C/C=C1\O[C@@H]2CC(C)=CC(=O)[C@@H]2[C@]1(C)O [Bisabolangelone] (10 µM) | 0 | 0 | 0 | 0 | 0 | 0 | 0 | 0 | 0 | 0
8 | C[C@@H](Nc1cc(F)cc(F)c1)c1cc(C(=O)N(C)C)cc2c(=O)cc(N3CCOCC3)oc12 (10 µM) | 0 | 0 | 0 | 0 | 0 | 0 | 0 | 0 | 0 | 0
9 | CN1CCN(c2ccc(NC(=O)c3ccc(C#N)o3)c(N3CCCCC3)c2)CC1 (10 µM) | 0 | 0 | 0 | 0 | 0 | 0 | 0 | 0 | 0 | 0
10 | O=C(O)/C=C/c1cc(Br)c(Br)c(Br)c1Br (10 µM) | 0 | 0 | 0 | 0 | 0 | 0 | 0 | 0 | 0 | 0
11 | Cc1ccc(-c2csc(Cn3nc(CC4OCCCO4)c4ccccc4c3=O)n2)cc1 (10 µM) | 0 | 0 | 0 | 0 | 0 | 0 | 0 | 0 | 0 | 0
12 | Nc1nc2c(ncn2COCCO)c(=O)[nH]1 [Acyclovir] (10 µM) | 0 | 0 | 0 | 0 | 0 | 0 | 0 | 0 | 0 | 0
13 | O=c1cc(N2CCOCC2)oc2c1ccc1ccccc12 (2 µM) | 0 | 0 | 0 | 0 | 0 | 0 | 0 | 0 | 0 | 0
14 | CN(c1ccc(C(F)(F)F)cc1)S(=O)(=O)c1ccc(C(=O)Nc2nc(-c3ccccn3)cs2)cc1 (2.5 µM) | 0 | 0 | 0 | 0 | 0 | 0 | 0 | 0 | 0 | 0
15 | CCN1C(C)(C)CC(Oc2ccc(C(=O)Nc3ccc(NC(=O)Nc4cc(C(C)(C)C)on4)cc3)nc2)CC1(C)C (10 µM) | 0 | 0 | 0 | 0 | 0 | 0 | 0 | 0 | 0 | 0
16 | Cc1cc(Nc2ncc(Cl)c(Nc3ccccc3S(=O)(=O)C(C)C)n2)c(OC(C)C)cc1C1CCN(CC(=O)NCCNc2cccc3c2C(=O)N(C2CCC(=O)NC2=O)C3=O)CC1 (stereo not given) (10 µM) | 0 | 0 | 0 | 0 | 0 | 0 | 0 | 0 | 0 | 0
17 | CC(C)n1nc(C#Cc2ccccc2)c2c(N)ncnc21 (10 µM) | 0 | 0 | 0 | 0 | 0 | 0 | 0 | 0 | 0 | 2

Single entries from the entries so far.
In number of time points [2], `CCN1C(C)(C)CC(Oc2ccc(C(=O)Nc3ccc(NC(=O)Nc4cc(C(C)(C)C)on4)cc3)nc2)CC1(C)C` (10 µM) reads 0
In number of time points [1], `CN(C)CCCNc1ccn2ncc(-c3ccc4c(c3)OCO4)c2n1` (10 µM) reads 0

Further results

Row | Compound | number of time points [1] | number of time points [2] | number of time points [3] | number of time points [4] | number of time points [5] | number of time points [6] | number of time points [7] | number of time points [8] | number of time points [9] | number of time points [10]
18 | CCCC[C@H](CO)Nc1nc(NC)ncc1OC [Interferon receptor inducer-1] (10 µM) | 0 | 0 | 0 | 0 | 0 | 0 | 0 | 0 | 0 | 0
19 | Cc1ccc(CNC(=O)N2CCC[C@]3(CCN(Cc4ccc(Cl)c(Cl)c4)C3)C2)cc1 (10 µM) | 0 | 0 | 0 | 0 | 0 | 0 | 0 | 0 | 0 | 0
20 | COc1cccc2cc(-c3nc([C@H]4CC[C@H](C(=O)O)CC4)n4ncnc(N)c34)[nH]c12 (2.5 µM) | 0 | 0 | 0 | 0 | 0 | 0 | 0 | 0 | 4 | 1
21 | Cc1nc(NC(=O)N2CCC[C@H]2C(N)=O)sc1-c1csc(C(C)(C)C)n1 (10 µM) | 0 | 0 | 0 | 0 | 0 | 0 | 0 | 0 | 0 | 0
22 | CNS(=O)(=O)C[C@H]1CC[C@H](N(C)c2[nH]cnc3nccc2-3)CC1 [Oclacitinib (maleate)] (10 µM) | 0 | 0 | 0 | 0 | 0 | 0 | 0 | 0 | 0 | 0
23 | O=S(=O)(c1cccc2c(Cl)cccc12)N1CCCNCC1 (10 µM) | 0 | 0 | 0 | 0 | 0 | 0 | 0 | 0 | 0 | 0
24 | CC(C)(C)NS(=O)(=O)c1cncc(-c2cc(F)c3nc(N)nn3c2)c1 (10 µM) | 1 | 0 | 0 | 0 | 0 | 0 | 0 | 0 | 0 | 0
25 | Cn1cc(-c2ccc3nnc(Sc4ccc5nn(C)cc5c4)n3n2)cn1 [c-Met inhibitor 1] (10 µM) | 0 | 0 | 0 | 0 | 0 | 0 | 0 | 0 | 0 | 0
26 | C=CC(=O)N1CCN(c2nc(OC[C@@H]3CCCN3C)nc3c2CCN(c2cccc4cccc(C)c24)C3)C[C@@H]1CC#N (2.5 µM) | 0 | 0 | 0 | 0 | 0 | 0 | 0 | 0 | 0 | 0
27 | COc1cc(-c2cc(-c3cccc(O)c3)cnc2N)cc(OC)c1OC (2.5 µM) | 0 | 0 | 0 | 0 | 0 | 0 | 0 | 0 | 2 | 3
28 | OCCC#Cc1nc(-c2ccc(F)cc2)c(-c2ccncc2)n1CCCc1ccccc1 (2.5 µM) | 0 | 0 | 0 | 0 | 0 | 0 | 0 | 0 | 0 | 0
29 | O=C(N/N=C/c1ccc([N+](=O)[O-])o1)c1ccc(O)cc1 [Nifuroxazide] (10 µM) | 0 | 0 | 0 | 0 | 0 | 0 | 0 | 2 | 3 | 3
30 | C[C@@H]1CC[C@]2(C(=O)O)CC[C@]3(C)C(=CC[C@@H]4[C@@]5(C)CC[C@H](O)[C@@](C)(CO)[C@@H]5CC[C@]43C)[C@@H]2[C@]1(C)O [Rotundic acid] (10 µM) | 0 | 0 | 0 | 0 | 0 | 0 | 0 | 0 | 0 | 0
31 | C=CC(=O)Nc1cc(C(=O)NC)cc(-c2n[nH]c3ccccc23)c1 (10 µM) | 0 | 0 | 0 | 0 | 0 | 0 | 0 | 3 | 0 | 0
32 | COc1cc(/C=C/c2ccc(NC(=O)/C=C/c3cc(OC)c(OC)c(OC)c3)cc2)cc(OC)c1 (2.5 µM) | 0 | 0 | 0 | 0 | 0 | 0 | 0 | 0 | 0 | 0
33 | C[C@@H]1O[C@@H](O[C@H]2[C@H](OC(=O)[C@]34CCC(C)(C)C[C@H]3C3=CC[C@@H]5[C@@]6(C)C[C@H](O)[C@H](O[C@@H]7O[C@H](CO)[C@@H](O)[C@H](O)[C@H]7O)C(CO)(CO)[C@@H]6CC[C@@]5(C)[C@]3(C)C[C@H]4O)OC[C@H](O)[C@@H]2O)[C@H](O)[C@H](O)[C@H]1O[C@@H]1OC[C@@H](O)[C@H](O[C@@H]2OC[C@](O)(CO)[C@H]2O)[C@H]1O [Platycodin D] (10 µM) | 0 | 0 | 0 | 0 | 0 | 0 | 0 | 0 | 0 | 1
